Source: ChEMBL document CHEMBL3988442, “University of Dundee, Small-Polar-MMV Screening Library” (2021).

Mtb cholesterol medium: 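Growth of Mycobacterium tuberculosis over 4 days (cholesterol / DPPC medium with tyloxapol); the read-out is not stated. Compounds at 50 µM. Higher reads as more growth inhibition (inferred: compounds with an IC50 in retests scored well above the rest). About 69,000 compounds were tested under these conditions; 0.54% (about 370) showed 50% or more at least once.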
Mtb glucose medium: 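Phenotypic screen: M. tuberculosis growth, glucose 7H9 medium, 3 days; the read-out is not stated. Tested at 50 µM. Higher reads as more growth inhibition (inferred: compounds with an IC50 in retests scored well above the rest). Size under these conditions: about 69,000 compounds, about 760 of them at 50% or above in at least one test.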

Values are the deposited “Percent Effect”, in %.
How 0% and 100% were set is not recorded. Most values in the screen are low, and negative values occur.
Compounds were drawn at random from those tested, without regard to their results.
Two or more numbers in one place are separate tests of the same structure; such repeats can differ widely.

With COCCc1noc(C2CCCN(c3ncnc4c3CCC4)C2)n1 (stereo not given) the screen gave Mtb cholesterol medium: 11.55%; Mtb glucose medium: 10.54%. Result for [H][C@]12CN(C(=O)c3csc(C)n3)C[C@@]1([H])OCCN(S(C)(=O)=O)C2 was Mtb cholesterol medium: 15.02%; Mtb glucose medium: -2.484% & 3.205%. Cl.Oc1cc(C2CCNCC2)nc(-c2ccsc2)n1 gave Mtb cholesterol medium: -1.744%; Mtb glucose medium: 4.047%. COc1cc(NC2CCCN(c3ncccn3)C2)cc(OC)c1 (stereo not given) read Mtb cholesterol medium: 5.738%; Mtb glucose medium: 30.39%. With Cc1nc(CN2CCCC(N(C)c3ccc(C#N)cn3)C2)no1 (stereo not given) the screen gave Mtb cholesterol medium: -13.02%; Mtb glucose medium: 8.806%.

With COCCN1CCC(CNC(=O)c2cc(C)cc(C)c2)C1 (stereo not given) the screen gave Mtb cholesterol medium: 18.01%; Mtb glucose medium: 37.33%. For CC(C)CN1CCN(C)C(CCO)C1 (stereo not given) the result was Mtb cholesterol medium: 10.76%; Mtb glucose medium: -6.874%. CN1CC(=O)N(c2cnn(C)c2)CC12CCN(Cc1cccs1)C2.O=C(O)C(F)(F)F.O=C(O)C(F)(F)F (stereo not given) gave Mtb cholesterol medium: 19.35%; Mtb glucose medium: -26.11%. O=C(NCc1cc[nH]n1)NCC(O)c1ccc(F)c(F)c1 (stereo not given) read Mtb cholesterol medium: -11.05%; Mtb glucose medium: 2.675%. NCc1ccccc1Sc1ccc(O)cc1.O=C(O)/C=C\C(=O)O read Mtb cholesterol medium: 21.13%; Mtb glucose medium: 14.97% & 13.97%.

Result for CN1CCOC[C@H]1c1nc(-c2ccccc2)c[nH]1 was Mtb cholesterol medium: -16.41%; Mtb glucose medium: 0.9532% & 3.666%. COc1ccc(SCC2CNc3nc4ccccc4c(=O)n32)cc1 (stereo not given) gave Mtb cholesterol medium: 2.565%; Mtb glucose medium: 2.753% & 10.75%. OCC1COCCN(Cc2cc(C3CCCCC3)no2)C1 (stereo not given) read Mtb cholesterol medium: 10.27% & -0.4523%; Mtb glucose medium: 1.758% & 13.22%. Cc1cc(C(=O)N(C)C)nc(C2(C)CCCN2c2ccccc2)n1 (stereo not given) gave Mtb cholesterol medium: 16.38% & -10%; Mtb glucose medium: 25.77%. With COc1cccc(OCC(=O)Nc2cc(C)cnc2OC)c1 the screen gave Mtb cholesterol medium: -13.63%; Mtb glucose medium: -7.937% & 11.77%.

Result for COCc1c(C(=O)N2CCCC(C(=O)c3ccccc3)C2)noc1C (stereo not given) was Mtb cholesterol medium: -8.329%; Mtb glucose medium: 1.022%. CN(CC1(O)CCCN(c2ccccn2)C1)C(=O)CCc1cccs1 (stereo not given) gave Mtb cholesterol medium: -5.295%; Mtb glucose medium: 0.3831%. Result for Cc1ccc(CNCC2CCN(CC(O)c3ccccc3)CC2)o1 (stereo not given) was Mtb cholesterol medium: 2.679%; Mtb glucose medium: -11.71%. Result for c1ccc2oc(CCCN3CCOC(Cn4cncn4)C3)nc2c1 (stereo not given) was Mtb cholesterol medium: -20.95%; Mtb glucose medium: -26.51%. With CCOc1cc(C)ccc1NS(=O)(=O)c1cc(C)c(C(=O)O)s1 the screen gave Mtb cholesterol medium: 6.24%; Mtb glucose medium: 6.399% & 3.274%.

COC(=O)CCn1ccc(=O)c2cc(OC)ccc21 gave Mtb cholesterol medium: -19.47%; Mtb glucose medium: -39.24%. With CN1CC(c2cc(O)nc(NCc3cccc(F)c3)n2)CC1=O (stereo not given) the screen gave Mtb cholesterol medium: -5.544%; Mtb glucose medium: -4.414%. With Cc1cccc(OC2CCN(Cc3ncc[nH]3)CC2)c1 the screen gave Mtb cholesterol medium: -12.56%; Mtb glucose medium: 13.79%. For Cn1nccc1C(=O)N1CCC2(CC1)COC(COc1ccccn1)C2.O=C(O)C(F)(F)F (stereo not given) the result was Mtb cholesterol medium: -9.903%; Mtb glucose medium: -22.12%. Result for O=C(NCCCn1ccnc1)N1CCN(c2cccs2)CC1 was Mtb cholesterol medium: 12.56%; Mtb glucose medium: 18.34%.

CC(C)Nc1nc2c(cc1C(=O)NCC1CC1)CCN(CC1CC1)CC2.O=C(O)C(F)(F)F.O=C(O)C(F)(F)F gave Mtb cholesterol medium: -1.052%; Mtb glucose medium: 16.71% & 6.948%. COc1cccc(CNCc2ccc(F)c(Cl)c2)c1O read Mtb cholesterol medium: 11.27%; Mtb glucose medium: 15.74% & 12.31%. With Cc1cnc(NCCc2c[nH]cn2)nc1-c1ccnn1C the screen gave Mtb cholesterol medium: 8.352%; Mtb glucose medium: 5.146% & 3.67%. With CCOC1CCN(C(=O)c2ccc(-n3ncc(C#N)c3N)cc2)CC1 the screen gave Mtb cholesterol medium: -2.011%; Mtb glucose medium: 5.779%.